Experimental data: publication PMC9597257
Results are given in words; binding and its absence hold for the method and conditions named. Binding seen in cells or lysates may run through a third protein. Some entries that bind do so weakly or less than the wild type.

By UniProt entry, the sequences of proteins in these tests, tags left out.
UniProt Q95KV1: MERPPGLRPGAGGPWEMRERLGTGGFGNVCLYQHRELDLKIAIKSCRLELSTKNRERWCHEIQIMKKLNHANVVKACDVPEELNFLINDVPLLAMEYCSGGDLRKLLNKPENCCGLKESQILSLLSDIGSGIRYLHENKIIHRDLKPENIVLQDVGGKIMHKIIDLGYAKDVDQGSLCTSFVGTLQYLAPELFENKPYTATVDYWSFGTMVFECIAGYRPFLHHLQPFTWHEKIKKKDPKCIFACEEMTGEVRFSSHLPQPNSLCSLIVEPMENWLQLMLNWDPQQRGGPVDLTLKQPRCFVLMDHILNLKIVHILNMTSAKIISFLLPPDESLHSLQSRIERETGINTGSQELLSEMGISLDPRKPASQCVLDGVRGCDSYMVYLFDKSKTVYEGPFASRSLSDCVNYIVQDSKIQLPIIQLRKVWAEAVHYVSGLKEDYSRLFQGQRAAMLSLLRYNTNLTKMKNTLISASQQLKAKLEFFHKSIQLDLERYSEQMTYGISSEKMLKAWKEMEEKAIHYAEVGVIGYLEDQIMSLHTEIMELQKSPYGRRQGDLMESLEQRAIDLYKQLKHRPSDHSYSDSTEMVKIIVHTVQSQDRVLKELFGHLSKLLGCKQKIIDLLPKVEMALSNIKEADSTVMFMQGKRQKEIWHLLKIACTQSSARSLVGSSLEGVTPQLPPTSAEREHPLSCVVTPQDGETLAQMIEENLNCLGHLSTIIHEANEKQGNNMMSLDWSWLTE
UniProt Q4JF28: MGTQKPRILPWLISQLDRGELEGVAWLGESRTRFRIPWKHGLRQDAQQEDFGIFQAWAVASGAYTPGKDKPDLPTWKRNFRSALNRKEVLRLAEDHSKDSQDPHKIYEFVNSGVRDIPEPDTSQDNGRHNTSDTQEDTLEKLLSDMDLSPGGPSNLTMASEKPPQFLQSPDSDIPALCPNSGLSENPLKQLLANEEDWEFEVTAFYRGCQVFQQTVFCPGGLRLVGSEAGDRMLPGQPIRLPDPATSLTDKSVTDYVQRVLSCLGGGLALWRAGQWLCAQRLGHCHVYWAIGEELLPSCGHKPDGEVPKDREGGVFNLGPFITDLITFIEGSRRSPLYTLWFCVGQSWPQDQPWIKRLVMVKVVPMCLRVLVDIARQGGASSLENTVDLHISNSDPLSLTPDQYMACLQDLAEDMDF
UniProt A2VDU3: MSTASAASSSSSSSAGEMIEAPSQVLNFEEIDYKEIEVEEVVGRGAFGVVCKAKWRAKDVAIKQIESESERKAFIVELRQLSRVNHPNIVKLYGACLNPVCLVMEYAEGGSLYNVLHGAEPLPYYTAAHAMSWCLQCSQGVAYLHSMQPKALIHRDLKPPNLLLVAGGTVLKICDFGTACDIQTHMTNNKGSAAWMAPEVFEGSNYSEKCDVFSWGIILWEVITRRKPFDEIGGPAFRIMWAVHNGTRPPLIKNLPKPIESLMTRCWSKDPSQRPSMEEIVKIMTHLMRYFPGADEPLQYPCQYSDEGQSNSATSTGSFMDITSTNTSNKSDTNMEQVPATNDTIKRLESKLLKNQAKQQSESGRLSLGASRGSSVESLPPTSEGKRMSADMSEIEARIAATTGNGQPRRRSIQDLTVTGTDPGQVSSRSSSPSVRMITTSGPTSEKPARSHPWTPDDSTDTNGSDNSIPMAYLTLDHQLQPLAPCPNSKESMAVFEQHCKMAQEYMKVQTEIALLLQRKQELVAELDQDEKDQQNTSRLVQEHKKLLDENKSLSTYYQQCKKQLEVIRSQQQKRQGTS

How the values were obtained:
[1] = biological target: T1, stimulator of interferon genes (STING) (Bos taurus (endogenous in bovine bladder tissue)) (UniProt Q2KI99); experiment: co-IP; 1 mg total protein extract of bovine bladder samples (RIPA buffer), anti-STING antibody, 1 h at 4°C, Protein A/G-Plus Agarose overnight at 4°C, four washes in lysis buffer, western blot
T1 sequence: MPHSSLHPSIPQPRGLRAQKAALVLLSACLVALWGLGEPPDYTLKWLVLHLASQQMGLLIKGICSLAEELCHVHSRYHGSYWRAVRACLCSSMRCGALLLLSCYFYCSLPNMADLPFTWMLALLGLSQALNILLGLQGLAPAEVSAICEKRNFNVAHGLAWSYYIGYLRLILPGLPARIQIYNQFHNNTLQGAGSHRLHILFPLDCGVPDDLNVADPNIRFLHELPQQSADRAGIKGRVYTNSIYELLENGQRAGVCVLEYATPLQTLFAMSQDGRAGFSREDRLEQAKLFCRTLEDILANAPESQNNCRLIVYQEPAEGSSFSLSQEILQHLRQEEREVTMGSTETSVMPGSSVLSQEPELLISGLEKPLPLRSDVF

[2] = biological target: interferon-inducible protein 16 (IFI16) (bovine (endogenous in bovine bladder tissue)); experiment: co-IP; 1 mg total protein extract of BPV-infected bovine bladder samples (RIPA buffer), anti-IFI16 antibody, Protein A/G-Plus Agarose, western blot
[3] = biological target: interferon-inducible protein 16 (IFI16) (bovine (endogenous in bovine bladder tissue)); experiment: co-IP; 1 mg total protein extract of BPV-negative (non-infected, healthy) bovine bladder samples (RIPA buffer), anti-IFI16 antibody, Protein A/G-Plus Agarose, western blot

| Molecule | binding [1] | binding [2] | binding [3] |
| --- | --- | --- | --- |
| IKKα (from UniProt Q95KV1 1-740) | binds | – | – |
| phosphorylated interferon regulatory factor 3 (pIRF3) (from UniProt Q4JF28 1-417) | binds | – | – |
| interferon regulatory factor 3 (IRF3) (from UniProt Q4JF28 1-417) | binds | – | – |
| TAK1 (from UniProt A2VDU3 1-579) | binds | – | – |
| stimulator of interferon genes (STING) (protein, UniProt Q2KI99 1-378) MPHSSLHPSIPQPRGLRAQKAALVLLSACLVALWGLGEPPDYTLKWLVLHLASQQMGLLIKGICSLAEELCHVHSRYHGSYWRAVRACLCSSMRCGALLLLSCYFYCSLPNMADLPFTWMLALLGLSQALNILLGLQGLAPAEVSAICEKRNFNVAHGLAWSYYIGYLRLILPGLPARIQIYNQFHNNTLQGAGSHRLHILFPLDCGVPDDLNVADPNIRFLHELPQQSADRAGIKGRVYTNSIYELLENGQRAGVCVLEYATPLQTLFAMSQDGRAGFSREDRLEQAKLFCRTLEDILANAPESQNNCRLIVYQEPAEGSSFSLSQEILQHLRQEEREVTMGSTETSVMPGSSVLSQEPELLISGLEKPLPLRSDVF | – | binds weakly | binds |
